Experimental data as given in patent US20210095293A1, “METHODS OF TREATING CANCERS WITH GPR132 INHIBITORS” (The Board of Regents of the University of Texas System, priority 2016, published 2021).
At least one compound was matched to its structure with a doubt left.

Key:
Gpr132 [1] = test: Gpr132 expression in hPBMN-derived human macrophages; type: cell-based; settings: 1 μM rosiglitazone or vehicle for 4 hours
Gpr132 [2] = test: Gpr132 expression in mouse macrophages (RT-QPCR); type: cell-based; settings: vs vehicle
[3] = system: luciferase-labelled 1833 human breast cancer cells; test: macrophage and human breast cancer cell co-culture, luciferase output; type: cell-based
[4] = system: luciferase labeled 4T1.2 mouse mammary tumor cells; test: macrophage and 4T1.2 mouse mammary tumor cell co-culture, luciferase output; type: cell-based; settings: rosiglitazone pre-treatment
[5] = system: Gpr132 transcription start site; test: ChIP assay of H3K9Ac at the Gpr132 transcription start site in RAW264.7 macrophages; type: cell-based, mouse; settings: 1 μM rosi for 4 hours

Structure (SMILES): CN(CCOc1ccc(CC2SC(=O)NC2=O)cc1)c1ccccn1 (stereo not drawn) [rosiglitazone]
- GPR132 expression in human macrophages (Gpr132 [1]): blunted
- reduction of GPR132 expression in PPARγ-deficient macrophages (Gpr132 [2]; PPARγ-deficient mouse macrophages): not
- GPR132 expression in WT macrophages (Gpr132 [2]; WT mouse macrophages): reduced
- inhibition of cancer cell proliferation in co-culture with pre-treated GPR132-KO macrophages ([3]; GPR132-KO macrophages pre-treated before cancer cell seeding): no longer showed any inhibition
- tumor cell proliferation in co-culture with pre-treated PPARγ-deficient macrophages ([3]; PPARγ-deficient (mf-g-KO) macrophages, rosiglitazone or vehicle pre-treatment): increased equally
- cancer cell growth in co-culture with pre-treated WT macrophages ([3]; WT mouse macrophages pre-treated with 1 μM Rosi for last 24 hrs, removed before seeding, vs vehicle): significantly inhibited
- anti-tumor effect of pre-treatment in Gpr132-null macrophages ([4]; Gpr132-KO macrophages): refractory
- growth of 4T1.2 cells in co-culture with pre-treated WT macrophages ([4]; WT macrophages): inhibited the growth
- H3K9Ac active transcription histone mark at the GPR132 transcriptional start site [5]: decreased level
